Assay in all cases: cryo-EM structure
The target of assay [1] is T1, sperm-associated antigen 6 (SPAG6) (mouse (endogenous in mouse sperm)) (UniProt Q9JLI7).
T1 sequence: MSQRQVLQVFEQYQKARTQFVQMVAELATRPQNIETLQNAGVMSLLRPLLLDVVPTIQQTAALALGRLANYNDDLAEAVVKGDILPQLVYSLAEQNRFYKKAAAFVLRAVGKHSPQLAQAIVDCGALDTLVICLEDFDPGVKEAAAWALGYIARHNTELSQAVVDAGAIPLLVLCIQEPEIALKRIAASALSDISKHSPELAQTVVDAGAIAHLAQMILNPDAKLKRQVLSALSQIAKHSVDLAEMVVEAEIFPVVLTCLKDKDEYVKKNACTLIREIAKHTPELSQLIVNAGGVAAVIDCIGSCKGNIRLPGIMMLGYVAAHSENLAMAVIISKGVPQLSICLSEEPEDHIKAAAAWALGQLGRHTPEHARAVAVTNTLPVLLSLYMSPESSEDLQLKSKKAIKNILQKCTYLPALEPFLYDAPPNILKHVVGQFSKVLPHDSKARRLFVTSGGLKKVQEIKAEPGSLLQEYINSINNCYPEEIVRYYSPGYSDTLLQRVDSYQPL

Chains of the proteins cited; added tags and fusions are not shown.
UniProt Q8K3V1: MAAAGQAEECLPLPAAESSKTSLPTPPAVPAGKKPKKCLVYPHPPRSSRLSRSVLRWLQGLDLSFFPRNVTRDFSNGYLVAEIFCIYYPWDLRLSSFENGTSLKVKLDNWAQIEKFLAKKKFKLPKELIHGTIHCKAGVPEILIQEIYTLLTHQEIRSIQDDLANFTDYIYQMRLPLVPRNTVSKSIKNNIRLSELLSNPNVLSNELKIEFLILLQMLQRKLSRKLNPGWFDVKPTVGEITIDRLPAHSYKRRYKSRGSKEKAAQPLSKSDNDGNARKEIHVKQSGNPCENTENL
UniProt Q3V0B4: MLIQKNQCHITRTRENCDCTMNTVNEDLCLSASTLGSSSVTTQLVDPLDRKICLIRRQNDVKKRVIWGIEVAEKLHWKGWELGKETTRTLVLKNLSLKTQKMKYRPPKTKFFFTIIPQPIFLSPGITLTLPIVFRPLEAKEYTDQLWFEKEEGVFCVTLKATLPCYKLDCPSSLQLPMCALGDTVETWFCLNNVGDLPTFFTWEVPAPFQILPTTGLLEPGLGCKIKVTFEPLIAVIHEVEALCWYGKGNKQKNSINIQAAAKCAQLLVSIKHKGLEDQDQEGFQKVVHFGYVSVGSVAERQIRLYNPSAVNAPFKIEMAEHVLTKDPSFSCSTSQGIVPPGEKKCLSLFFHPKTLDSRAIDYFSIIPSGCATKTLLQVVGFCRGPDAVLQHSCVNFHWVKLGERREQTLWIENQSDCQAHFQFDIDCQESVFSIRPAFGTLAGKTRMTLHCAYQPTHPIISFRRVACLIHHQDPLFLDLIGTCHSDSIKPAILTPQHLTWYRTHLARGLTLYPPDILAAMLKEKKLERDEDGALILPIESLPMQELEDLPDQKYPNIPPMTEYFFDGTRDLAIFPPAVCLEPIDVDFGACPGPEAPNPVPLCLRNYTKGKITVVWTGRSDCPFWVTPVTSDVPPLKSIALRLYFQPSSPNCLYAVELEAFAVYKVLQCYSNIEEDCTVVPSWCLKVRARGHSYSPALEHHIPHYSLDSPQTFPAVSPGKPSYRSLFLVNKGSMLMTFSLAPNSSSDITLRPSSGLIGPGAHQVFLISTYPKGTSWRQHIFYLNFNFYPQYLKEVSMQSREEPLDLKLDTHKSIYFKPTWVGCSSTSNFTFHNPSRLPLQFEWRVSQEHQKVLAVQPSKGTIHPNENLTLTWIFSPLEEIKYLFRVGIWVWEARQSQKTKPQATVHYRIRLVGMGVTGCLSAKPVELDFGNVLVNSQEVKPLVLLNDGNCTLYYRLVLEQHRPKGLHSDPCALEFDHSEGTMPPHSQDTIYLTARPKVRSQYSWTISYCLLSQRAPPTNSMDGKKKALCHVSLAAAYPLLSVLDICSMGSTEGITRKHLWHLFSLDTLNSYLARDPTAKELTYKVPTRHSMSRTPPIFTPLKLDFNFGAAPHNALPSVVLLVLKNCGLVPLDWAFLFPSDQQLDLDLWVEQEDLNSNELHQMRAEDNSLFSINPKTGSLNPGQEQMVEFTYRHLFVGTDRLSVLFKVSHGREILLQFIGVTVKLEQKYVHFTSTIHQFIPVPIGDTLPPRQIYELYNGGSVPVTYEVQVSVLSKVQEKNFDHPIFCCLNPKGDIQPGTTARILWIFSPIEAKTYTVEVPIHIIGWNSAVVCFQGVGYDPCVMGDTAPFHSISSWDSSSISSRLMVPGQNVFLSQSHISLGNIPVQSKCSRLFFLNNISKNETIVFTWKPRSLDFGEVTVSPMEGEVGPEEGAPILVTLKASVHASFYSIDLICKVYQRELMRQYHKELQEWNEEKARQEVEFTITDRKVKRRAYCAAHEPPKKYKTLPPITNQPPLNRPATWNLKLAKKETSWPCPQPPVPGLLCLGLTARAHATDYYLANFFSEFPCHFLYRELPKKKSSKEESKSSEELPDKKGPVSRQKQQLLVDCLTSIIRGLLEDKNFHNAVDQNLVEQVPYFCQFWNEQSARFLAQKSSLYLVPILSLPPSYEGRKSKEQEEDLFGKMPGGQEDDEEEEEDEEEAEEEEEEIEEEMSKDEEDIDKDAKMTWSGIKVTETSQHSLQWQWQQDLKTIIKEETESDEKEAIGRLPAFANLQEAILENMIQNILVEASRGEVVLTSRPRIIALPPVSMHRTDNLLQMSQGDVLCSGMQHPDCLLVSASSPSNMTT
UniProt Q8C9J3: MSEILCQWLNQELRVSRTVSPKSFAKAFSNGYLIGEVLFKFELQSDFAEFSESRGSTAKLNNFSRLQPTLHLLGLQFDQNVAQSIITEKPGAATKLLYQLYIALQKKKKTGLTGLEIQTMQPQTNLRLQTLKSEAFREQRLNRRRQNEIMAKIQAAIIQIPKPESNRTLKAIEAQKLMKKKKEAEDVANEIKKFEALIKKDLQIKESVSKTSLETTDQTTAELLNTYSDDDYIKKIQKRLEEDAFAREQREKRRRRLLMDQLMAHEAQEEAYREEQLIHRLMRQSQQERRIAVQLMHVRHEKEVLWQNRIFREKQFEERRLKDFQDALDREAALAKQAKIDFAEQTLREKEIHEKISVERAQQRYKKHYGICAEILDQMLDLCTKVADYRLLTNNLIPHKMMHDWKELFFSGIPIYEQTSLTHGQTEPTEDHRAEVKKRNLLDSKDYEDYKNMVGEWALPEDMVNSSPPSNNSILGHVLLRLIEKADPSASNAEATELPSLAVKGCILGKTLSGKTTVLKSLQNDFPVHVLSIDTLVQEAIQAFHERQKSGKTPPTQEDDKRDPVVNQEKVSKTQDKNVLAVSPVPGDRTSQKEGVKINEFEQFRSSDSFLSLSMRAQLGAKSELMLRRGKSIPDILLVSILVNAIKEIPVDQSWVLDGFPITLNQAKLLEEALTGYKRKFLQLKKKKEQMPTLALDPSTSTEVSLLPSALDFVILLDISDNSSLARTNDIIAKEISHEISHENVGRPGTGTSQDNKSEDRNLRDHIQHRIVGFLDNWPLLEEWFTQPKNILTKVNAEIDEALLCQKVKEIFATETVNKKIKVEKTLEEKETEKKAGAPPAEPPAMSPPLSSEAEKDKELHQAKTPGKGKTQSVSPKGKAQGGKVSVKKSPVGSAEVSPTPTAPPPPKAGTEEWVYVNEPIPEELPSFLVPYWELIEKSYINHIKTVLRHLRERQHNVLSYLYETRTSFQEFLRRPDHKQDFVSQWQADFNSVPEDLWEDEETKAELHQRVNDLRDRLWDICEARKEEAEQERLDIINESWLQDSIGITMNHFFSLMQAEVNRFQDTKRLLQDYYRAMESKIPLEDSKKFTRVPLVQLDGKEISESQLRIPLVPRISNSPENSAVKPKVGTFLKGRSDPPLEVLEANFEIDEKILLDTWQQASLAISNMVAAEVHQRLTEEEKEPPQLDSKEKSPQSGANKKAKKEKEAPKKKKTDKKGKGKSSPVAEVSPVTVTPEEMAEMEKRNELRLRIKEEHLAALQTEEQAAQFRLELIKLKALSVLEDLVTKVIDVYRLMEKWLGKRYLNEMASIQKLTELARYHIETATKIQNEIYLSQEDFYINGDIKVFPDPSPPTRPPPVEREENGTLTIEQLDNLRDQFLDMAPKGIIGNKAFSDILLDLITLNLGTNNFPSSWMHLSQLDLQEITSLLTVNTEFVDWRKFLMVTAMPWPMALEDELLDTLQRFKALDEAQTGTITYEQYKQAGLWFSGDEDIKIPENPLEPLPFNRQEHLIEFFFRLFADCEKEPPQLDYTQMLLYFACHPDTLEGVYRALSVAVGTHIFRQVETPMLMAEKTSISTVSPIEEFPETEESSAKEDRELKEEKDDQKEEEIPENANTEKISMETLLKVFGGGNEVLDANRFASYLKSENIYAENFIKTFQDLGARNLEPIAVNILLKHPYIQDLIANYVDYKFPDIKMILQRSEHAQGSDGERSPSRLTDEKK

Assay [2] addresses HYDIN (mouse (endogenous in mouse sperm)) (UniProt Q80W93).
The target of assay [3] is T1, sperm-associated antigen 6 (SPAG6) (mouse (endogenous in mouse sperm)). The source holds these as a separate data set.
The target in assay [4] is CFAP47 (mouse (endogenous in mouse sperm)).
The target in assay [5] is SPATA4 (mouse (endogenous in mouse sperm)) (UniProt Q8K3V1).
Assay [6] addresses CFAP65 (mouse (endogenous in mouse sperm)) (UniProt Q3V0B4).
In assay [7] the target is HYDIN (mouse (endogenous in mouse sperm)) (UniProt Q80W93). The source holds these as a separate data set.

Like-named read-outs stand apart in the source and are kept apart here. These are yes or no findings as the source states them, for the method shown. Some results given as binding are weak or reduced against the parent protein; the word gives no strength.

In the case of SPEF2 (from UniProt Q8C9J3 1-1724), the binding entry in assay [1] and in assay [2] was “binds” each time.

B1: sperm-associated antigen 6 (SPAG6) (protein, UniProt Q9JLI7 1-507)
chain: T1 sequence
As for B1, the binding entry in assay [3] and in assay [4] was “binds” in each case.

B2: SPAG16 (natural protein)
chain: MAAPSGVPPLRVLEELGIGLSPTGEVTEAVTSEGAYYLEQVTITETSEDECEYEEIPDDNFSIPEGEEDLEKAIHIIGEQARDIHILEQQTILPARNVMQEAIEDFLCNFLIKMGMTRTLDCFQAEWYELIQKKGSDFKGLGNVPDVYSQVMLLETENKNLKKELKHFKQAAEKAKEDLLRTQKERDFHRMHHKRIVQEKNKLIADLKGLKLHYASYEPTIRVLHEKHHALLKEKMLTSLERDRAVGKISGLQATLKNIDMGHIQVPVIKGSYESASITRESGDRAGHSCEKENSSEGPTQKSLREAREEVGYKSKLKNEKKDSEFPVDMQPDPNVTSCTENVSAAKFDYKLNNIFRLHELPVSCIVMHPCRDYLISCSEDRLWKMVGLPQGNVLLTGSGHTDWLSGCCFHPSGSKLATSSGDSTIKLWDLNKGECTLTLEGHNHAVWSCTWHSCGDFVASASLDMTSKIWDVNSERCRYTLYGHTDSVNSIEFFPFSNILLTASADKTLSVWDARTGKCEQSLYGHMHSVNDATFTPRGHIIASCDARGVTKLWDFRKLIPIVSIDVGPSSGNEVNFDQSGRVLAQASANGIIHLLDLKSGQIHKLVGHESEVHSVVFSHLGENLYSGGSDGTIRLWI
Regarding B2, the binding entry in assay [5] was “binds”.

B3: KIF9 (protein, UniProt Q9WV04 1-790)
chain: MGTRKKVQAFVRVRPTDDFAHEMIKYGEDNKSIDIHLKKDTRRGVVNNQQTDWSFKLDGVLHNASQDLVYETVAKDAVSQALDGYNGTIMCYGQTGAGKTYTMTGATENYKHRGILPRALQQVFRMIEERPTHAITVRVSYLEIYNENLFDLLSTLPYVGPSVTPMTIVENPQGIFIKGLSVHLTSQEEDAFSLLFEGETNRIIASHTMNKNSSRSHCIFTIYMEAHSRTLSDEKYITSKINLVDLAGSERLSKTGSEGRVLKEATYINKSLSFLEQAIIALGDQNRDHVPFRQSKLTHALKDSLGGNCNMVLVTNIYGEAAQLDETLSSLRFASRMKLVTTEPAINEKYDAERMVKNLEKELALLKQELAIHDSLSNRTLVNYDPMDEIQIAEINSQVRRYLEGTLDEIDIINLRQIQEVFNQFRVVLSQQEQEVESALRRKYTLIDKNDFAAISAVQKVGLMDIEGNLVGEPDGQSFGLGVAPFSVKPGKKPKTKKTPKDQFSSSARKEGASSPVSGKDFDVASISKTQLIPSSKDGDLKDMLARERETSSIEPLISDSPKEELRAPRPSTPPSRTVAFEEFKNERGSEINRIFKENKSILNERKKRASETTQRINAIKQEIDETKDALNFQKSLREKQGEYENKGLMIIDEEEFLLILKLKDLKKQYRNEYQELRDLRAEIQYCQRLVDQCRHRLLMEFDIWYNESFMIPEDVQVALKLGSSIRPGMVPISRIVCLGEDDQDRFSHLQQTVLPEGLDSITFYNAKVKTDQKHNYMKTMVGLQQSHRK
Take B3: the binding result in assay [6] is “binds”.

B4: MAP1S (microtubule-associated protein 1S) (protein, UniProt Q8C052 1-973)
chain: MAAVMAAPEAVEAPSSLLLLVVGGECGCPGLLAYVMEELERGVRSWEDVDPAVCSLDEQLKAFVSRHSATFSSIVKGQRSLHHRGETLETLVLLNPSDKSLCDELRNLLMDPAPHKLLVLAGPCLEETGELLLQTGGFSAHHFLQVLGDKEVQDALASAPAAPALTVSCPTFGDWALLGPVPGLQLRLNPPAQLPASEGLRAFLEYVAESLEPPSPFELLEPPAAGGFLRLARPCCYVFPGGLGDAAFFAVNGFTVLVNGGSNPKSSFWKLVRHLDRVDAVLVTHAGADSLPGLNSLLRRKLAEREAAAGPQGQHEERLRRLLSPALGVVFLNAREAASRLRGGEDEAVCARSLLRSLGIAPLPLQRGPQPSCPTVLFEKLGVGRLELFVLHPPPGDPAAPACALLVWQPAAPGDKVVRVLFPGRTPPARLLDGLQRLQHLPCLRRPVVTTHDLEAPSRANSQDSLASRDSARKEPVRGTVGSIANRSTVRREPALATRDQKKDTRSGPTQPTARDTRRSGPGVVNTKPRVSQNGPRAPVLAAPLTAPVAECPGEAENILESERPPAPSPTLSPAQSPPPTAPGNSPERLSLSPLRPEPAPDASPSATTPTLTTPSLPAELGSPHSTEVDESLSVSFEQVLPAGDPGLSLPLRLARRSTSPHDVDLCLVSPCEFSHRKPPPPASPGSSDSSARSQERPPETPPTSVSESLPTLSDSDPVPVADSDDDAGSESAARDPPPTPRVPPPLPDVPGICMVDPEALPPRARQPLNTTNPSRSRKAPARPSSASATPRAATVAAKTKGPAGDRNRPLSARSEPADRPGRVPLTRKPSVPKTVPKMASATRLSSGPSGRPAPLAAGSPVYLDLAYLPGGGAGHLDQNFFLRVRALCYVISGQGQRQEEGLRAVLDALLAGKRQWDLDLQVTLIPTFDSAVMHRWYEETHAQHQALGIRVLGSGSLVSMQDEAFPACKVEF
As for B4, the binding result in assay [7] is recorded as “binds”.

B5: germ cell-less 1 (GMCL1) (natural protein)
chain: MGALSSRVLRPAGRTEQPEPTPGAGGAARRSDAGEDAGHSFCYCPGGRKRKRSSGTFCYCHPDSETDDDEDEGDEQQRLLNTPRRKKLKSTSKYIYQTLFLNGENSDIKICALGEEWSLHKIYLCQSGYFSSMFSGSWKESSMNIIELEIPDQNIDIEALQVAFGSLYRDDVLIKPSRVVAILAAACMLQLDGLIQQCGETMKETISVRTVCGYYTSAGTYGLDSVKKKCLEWLLNNLMTHQSVELFKELSINVMKQLIGSSNLFVMQVEMDVYTALKKWMFLQLVPSWNGSLKQLLTETDVWFSKWKKDFEGTTFLETEQGKPFAPVFRHLRLQYIISDLASARIIEQDSLVPSEWLAAVYKQQWLAMLRAEQDSEVGPQEINKEELEGNSMRCGRKLAKDGEYCWRWTGFNFGFDLLVTYTNRYIIFKRNTLNQPCSGSVSLQPRRSIAFRLRLASFDSSGKLICSRATGYQILTLEKDQEQVVMNLDSRLLIFPLYICCNFLYISPEKRTESNRHPENPGH
In the case of B5, the binding entry in assay [4] is recorded as “binds”.

B6: SPATA17 (protein, UniProt Q9D552 1-379)
chain: METNSNNFGELQELKDMATLAKLLARAPFLESQYYFRNRAVDSFRKFENDAAVMIQSWFRGCQVRAYMRHLNRVVTIIQKWWRSYLGRKFYQLVVEAAYYTMKMNLYNEMAVRIQRRWRGFRIRKYCFNYYYLKEYLRAVSETNDAIREALEEFAEMKEREERKVLLEREEKQKDYQARKMHYLLSTKQISGIYNSPFREHPDPWELRLQKAKPLGHQKYTAEKGKTSQSPSNWLACTSVHSFPQSESLPPISRKRCQGPFRDINEVLEQRYKPLEPTLRVAEPINHLRLAREAFKQEERMRNVQDKMFLPFSSYHKKEKYIPMIHSSSAYNSDSYGQKHFRSQDSKKWISDKDFQTVLPSFQLFSKYGKLYSKAGEIV
On to B6, for which the binding result in assay [3] is listed as “binds”.

For the origin of these results see publication doi:10.1101/2024.08.06.606614 (bioRxiv, 2024).
